Measurements: patent US12577216B2, “Triazine benzoate compound and application thereof” (SHENYANG SINOCHEM AGROCHEMICALS R&D CO., LTD., priority 2020, dated 2026)
Some results were stated once for a whole list of compounds, not compound by compound.

Experiments:
green bristlegrass = test: Determination of herbicidal activity, post-emergence stem and leaf spray, green bristlegrass; type: in vivo; details: 150 g a.i./hm^2, after emergence, visual 0-100%
Procedure: (§1) Seeds of broadleaf weeds (zinnia and piemarker) or grassy weeds (green bristlegrass and barnyard grass) were respectively sown in a paper cup having a diameter of 7 cm and containing nutrient soil; after sowing, the seeds were covered with 1 cm of soil; the soil was pressed and watered, and then the seeds were cultivated in a greenhouse according to a conventional method; and stems and leaves were sprayed after 2-3 leaf stage of the weeds.
(§2) After the original medicinal acetone was dissolved, the test requires to use 1‰ of Tween 80 to stand in running water to prepare the solution to be tested with a required concentration. According to the design dose of the test, spray treatment was carried out on a track-type crop sprayer (designed and produced by British Engineer Research Ltd.) (spray pressure is 1.95 kg/cm^2, spray volume is 500 L/hm^2 and track speed is 1.48 km/h). The test was repeated for three times. The test material was treated and then placed in an operation hall. The medicinal liquid was naturally dried in the shade, and then was placed in a greenhouse and managed according to the conventional method. The response of the weeds to the drug was observed and recorded. After treatment, the control effects of the test drug on the weeds were visually inspected regularly, expressed by 0-100%. “0” represents no control effect and “100%” represents complete killing.

barnyard grass = test: Determination of herbicidal activity, post-emergence stem and leaf spray, barnyard grass; type: in vivo; details: 150 g a.i./hm^2, after emergence, visual 0-100%
Procedure: as §1, §2

## CC(OC(=O)c1cc(-n2c(=O)n(C)c(=S)n(C)c2=O)c(F)cc1Cl)C(=O)OC/C=C/Cl (centres unmarked) [Compound 281, (E)-2-chloro-4-fluoro-5-(3,5-dimethyl-2,6-dioxo-4-thio-1,3,5-triazine-1-yl)benzoic acid (1-(3-chloroallyloxycarbonyl))ethyl ester]
Green bristlegrass
  control effects on green bristlegrass: not less than 80%
Barnyard grass
  control effects on barnyard grass: not less than 90%
